According to US11592453B2, “Personalized metabolomic profiling of specialized pro-resolving mediators” (THE BRIGHAM AND WOMEN'S HOSPITAL, INC., priority 2016, dated 2023):

Assay: LC-MS/MS LM metabololipidomics of human whole blood during coagulation
Settings: for LM concentration, Coagulation t = 0 h, Avg / LM concentration, Coagulation t = 0.25 h, Avg / LM concentration, Coagulation t = 0.5 h, Avg / LM concentration, Coagulation t = 1 h, Avg / LM concentration, Coagulation t = 3 h, Avg / LM concentration, Coagulation t = 6 h, Avg / LM concentration, Coagulation t = 24 h, Avg: human whole blood, mean of 12 donors

For CC[C@@H](O)/C=C/C=C\C[C@@H](O)/C=C/C=C/C=C\[C@@H](O)CCCC(=O)O [RvE1, Resolvin E1 (5S, 12R, 18R-trihydroxy-eicosa-6Z, 8E, 10E, 14Z, 16E-pentaenoic acid)], which “highest concentrations of SPMs generated within 24 hours of coagulation in blood” value (healthy donors) is on record?
The value was 58 pM.

What about the “LM concentration, Coagulation t = 0 h, Avg” value of the same compound?
The value was “— ((—) denotes concentrations < 0.1 pg/ml)”.

And the “LM concentration, Coagulation t = 0.25 h, Avg” value?
Its value is “— ((—) denotes concentrations < 0.1 pg/ml)”.

And the “LM concentration, Coagulation t = 0.5 h, Avg” value?
Its value is “— ((—) denotes concentrations < 0.1 pg/ml)”.

And the “LM concentration, Coagulation t = 1 h, Avg” value?
Its value is 0.4 pg/mL.

What about the “LM concentration, Coagulation t = 3 h, Avg” value of the same compound?
Its value is 2.7 pg/mL.

And the “LM concentration, Coagulation t = 6 h, Avg” value?
Its value is 2.3 pg/mL.

And the “LM concentration, Coagulation t = 24 h, Avg” value?
Its value is 5.1 pg/mL.

For CC[C@@H](O)/C=C/C=C\C/C=C\C/C=C\C=C\[C@@H](O)CCCC(=O)O [RvE2, Resolvin E2 (5S, 18R-dihydroxy-eicosa-6E, 8Z, 11Z, 14Z, 16E-pentaenoic acid)], which “LM concentration, Coagulation t = 0 h, Avg” value is on record?
Its value is “— ((—) denotes concentrations < 0.1 pg/ml)”.

What about the “LM concentration, Coagulation t = 0.25 h, Avg” value of the same compound?
Its value is “— ((—) denotes concentrations < 0.1 pg/ml)”.

What about the “LM concentration, Coagulation t = 0.5 h, Avg” value of the same compound?
The value was “— ((—) denotes concentrations < 0.1 pg/ml)”.

What about the “LM concentration, Coagulation t = 1 h, Avg” value of the same compound?
Its value is “— ((—) denotes concentrations < 0.1 pg/ml)”.

And the “LM concentration, Coagulation t = 3 h, Avg” value?
Its value is “— ((—) denotes concentrations < 0.1 pg/ml)”.

What about the “LM concentration, Coagulation t = 6 h, Avg” value of the same compound?
Its value is “— ((—) denotes concentrations < 0.1 pg/ml)”.

What about the “LM concentration, Coagulation t = 24 h, Avg” value of the same compound?
Its value is “— ((—) denotes concentrations < 0.1 pg/ml)”.

Which “LM concentration, Coagulation t = 0 h, Avg” value does the source give for CC[C@@H](O)[C@H](O)/C=C/C=C/C=C\C/C=C\C/C=C\CCCC(=O)O [RvE3, Resolvin E3 (17R,18R-dihydroxy-eicosa-5Z, 8Z, 11Z, 13E, 15E-pentaenoic acid)] here?
Its value is “— ((—) denotes concentrations < 0.1 pg/ml)”.

And the “LM concentration, Coagulation t = 0.25 h, Avg” value?
The value was “— ((—) denotes concentrations < 0.1 pg/ml)”.

And the “LM concentration, Coagulation t = 0.5 h, Avg” value?
Its value is “— ((—) denotes concentrations < 0.1 pg/ml)”.

What about the “LM concentration, Coagulation t = 1 h, Avg” value of the same compound?
The value was “— ((—) denotes concentrations < 0.1 pg/ml)”.

And the “LM concentration, Coagulation t = 3 h, Avg” value?
Its value is “— ((—) denotes concentrations < 0.1 pg/ml)”.

And the “LM concentration, Coagulation t = 6 h, Avg” value?
The value was “— ((—) denotes concentrations < 0.1 pg/ml)”.

And the “LM concentration, Coagulation t = 24 h, Avg” value?
The value was “— ((—) denotes concentrations < 0.1 pg/ml)”.

What does the source list for CCCCC[C@H](O)/C=C/[C@H]1OC(O)C[C@H](O)[C@@H]1C/C=C\CCCC(=O)O (stereo partly drawn) [TXB2, 9α, 11, 15S-trihydroxy-thromba-5Z, 13E-dien-1-oic acid]?
LM concentration, Coagulation t = 0 h, Avg: 3.0 pg/mL; LM concentration, Coagulation t = 0.25 h, Avg: 87.2 pg/mL; LM concentration, Coagulation t = 0.5 h, Avg: 671.8 pg/mL; LM concentration, Coagulation t = 1 h, Avg: 1365.4 pg/mL; LM concentration, Coagulation t = 3 h, Avg: 1509.6 pg/mL; LM concentration, Coagulation t = 6 h, Avg: 1625.6 pg/mL; LM concentration, Coagulation t = 24 h, Avg: 1959.6 pg/mL
